# Percent effect of library compounds

Amino acid sequences for entries named in this document (tags omitted).
UniProt P9WNZ1, whole entry: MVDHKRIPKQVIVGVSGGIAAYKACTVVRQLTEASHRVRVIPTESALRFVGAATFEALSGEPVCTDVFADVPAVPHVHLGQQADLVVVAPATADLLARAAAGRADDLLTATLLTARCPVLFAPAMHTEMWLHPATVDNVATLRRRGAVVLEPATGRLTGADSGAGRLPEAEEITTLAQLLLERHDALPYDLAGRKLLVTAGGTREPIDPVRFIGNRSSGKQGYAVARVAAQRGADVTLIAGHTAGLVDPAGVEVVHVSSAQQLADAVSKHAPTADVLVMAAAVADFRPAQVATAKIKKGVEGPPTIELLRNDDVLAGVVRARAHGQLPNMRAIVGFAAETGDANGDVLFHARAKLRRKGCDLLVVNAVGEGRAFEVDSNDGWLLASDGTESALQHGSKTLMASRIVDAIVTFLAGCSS
UniProt P9WFT3, whole entry: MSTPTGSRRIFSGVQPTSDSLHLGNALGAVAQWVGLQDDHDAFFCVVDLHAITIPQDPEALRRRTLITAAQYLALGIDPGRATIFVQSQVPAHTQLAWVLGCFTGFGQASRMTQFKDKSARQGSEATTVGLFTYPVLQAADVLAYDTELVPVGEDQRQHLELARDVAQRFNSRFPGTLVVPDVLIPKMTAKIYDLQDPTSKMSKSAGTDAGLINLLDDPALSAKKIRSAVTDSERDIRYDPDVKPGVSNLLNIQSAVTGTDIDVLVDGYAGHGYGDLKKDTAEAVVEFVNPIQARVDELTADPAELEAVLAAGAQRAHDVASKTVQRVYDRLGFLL

From ChEMBL document CHEMBL3988442, “University of Dundee, Small-Polar-MMV Screening Library” (2021).

CoaBC: 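Enzyme assay of CoaBC with a phosphate dye (Biomol Green) read at 650 nm. Target: Coenzyme A biosynthesis protein CoaBC, Mycobacterium tuberculosis (UniProt P9WNZ1). Concentration: 30 µM. Direction is inferred from only a few compounds that gave an IC50; most scored high, so higher reads as stronger inhibition. Most strong results did not repeat in a second test. Size under these conditions: about 67,000 compounds, about 40 of them at 50% or above in at least one test.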
MtTrpRS: 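Enzyme assay of tryptophanyl-tRNA synthetase; the read-out is not stated. Target: Tryptophan-tRNA ligase, Mycobacterium tuberculosis (UniProt P9WFT3). Tested at 10 µM. Direction is not recorded; retested compounds ran higher, which suggests that high means inhibition. Size under these conditions: about 65,000 compounds, about 64 of them at 50% or above in at least one test.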

Results are given as percent effect. How 0% and 100% were set is not recorded. Most values in the screen are low, and negative values occur. The compounds are a random part of those screened.

- CCCc1noc(CCCC(=O)N2CCCC(n3ccnc3C)C2)n1 (stereo not given) : CoaBC: 1.984%; MtTrpRS: -1.701%
- COc1ccc(NCc2nc(=O)n(CCC(C)C)[nH]2)cc1 : CoaBC: 5.263%; MtTrpRS: -1.165%
- Cc1nonc1CNC(=O)C(C)Oc1cccc(F)c1 (stereo not given) : CoaBC: 3.39%; MtTrpRS: -2.676%
- O[C@H]1Cc2ccccc2[C@H]1n1ccnc1-c1cc2n(n1)CCNC2 : CoaBC: 5.093%; MtTrpRS: -1.302%
- CC(C)c1noc(CN2CCOCC2C)n1 (stereo not given) : CoaBC: 3.398%; MtTrpRS: 0.288%
- CCOCCn1nc(C)cc1C(=O)N(C)Cc1cccc2ncccc12 : CoaBC: 6.909%; MtTrpRS: -0.9428%
- Cc1nc(CN2CC[C@H]3C[C@H](c4ccncn4)O[C@@H]3C2)cs1 : CoaBC: 11.11%; MtTrpRS: -0.6637%
- CC(CO)NC(=O)c1ccc(NCc2cc(C#N)ccc2F)cc1 (stereo not given) : CoaBC: 2.408%; MtTrpRS: -3.644%
- Fc1cnc(N2C[C@@H]3COC[C@]3(COc3ccccn3)C2)nc1 : CoaBC: 7.522%; MtTrpRS: 9.663%
- CN(Cc1ccccn1)C1CC2(CCN(Cc3ccccn3)CC2)C1 : CoaBC: 6.5%; MtTrpRS: -4.691%
- FC(F)(F)CCc1ccnc(N2CCN(CCc3ccncc3)CC2)n1 : CoaBC: 1.21%; MtTrpRS: -7.588%
- CN(c1cccnc1N1CCCC1)S(=O)(=O)c1cccnc1 : CoaBC: -2.273%; MtTrpRS: -4.421%
- O=C(NCCc1csc(-c2cccnc2)n1)c1cnn2c1CCCC2 : CoaBC: 4.943%; MtTrpRS: 4.002%
- N#Cc1ccc(CN2CCOCC2)cc1 : CoaBC: 0%; MtTrpRS: -0.576%
- COc1cc(C(=O)NCCCc2ccccc2)on1 : CoaBC: 2.748%; MtTrpRS: -0.9878%
- CC(C)CCc1n[nH]c(C(=O)O)c1Br : CoaBC: -4.245%; MtTrpRS: 3.387%
- O=C(CNC(=O)C1CC1)NCc1ccc(Cl)s1 : CoaBC: 0%; MtTrpRS: -3.717%
- Cc1noc(C)c1CN1C[C@H](OCC2CCN(C)CC2)[C@H]2COC[C@H]21 : CoaBC: 3.273%
- CCCc1noc(CCC(=O)N2CCCC2c2cccs2)n1 (stereo not given) : CoaBC: 3.675%; MtTrpRS: 0.5731%
- CS(=O)(=O)c1ccc(NC(=O)NCCC2=CCCCC2)cc1 : CoaBC: 2.584%; MtTrpRS: -2.413%
- O=C([C@H]1CN(Cc2ccc(F)cc2)C[C@H]2OCC[C@@H]12)N1CCCO1 : CoaBC: 6.452%; MtTrpRS: -0.6506%
- NC1CCc2c(ccc(=O)n2CC2CC2)C1 (stereo not given) : CoaBC: -2.545%; MtTrpRS: -2.991%
- CC(C)CN1CCN(C(=O)CCn2cccn2)CC1 : CoaBC: 9.838%; MtTrpRS: 0.6773%
- Cc1cc(C2CCCN2C(=O)Nc2cn[nH]c2)on1 (stereo not given) : CoaBC: 0.6711%; MtTrpRS: 0.08157%
- Cc1cnn(CC(C)Nc2cnc3ccccc3n2)c1 (stereo not given) : CoaBC: -3.584%; MtTrpRS: -1.22%

The last 3 entries again:

Compound,CoaBC,MtTrpRS
CC(C)CN1CCN(C(=O)CCn2cccn2)CC1,9.838,0.6773
Cc1cc(C2CCCN2C(=O)Nc2cn[nH]c2)on1 (stereo not given),0.6711,0.08157
Cc1cnn(CC(C)Nc2cnc3ccccc3n2)c1 (stereo not given),-3.584,-1.22